These are yes or no findings as the source states them, for the method shown. Binding seen in cells or lysates may run through a third protein. A yes stands for co-enrichment or nearness to the bait. Other partners may have been found.

By UniProt entry, the sequences of proteins in these tests, tags left out.
UniProt Q05BC3: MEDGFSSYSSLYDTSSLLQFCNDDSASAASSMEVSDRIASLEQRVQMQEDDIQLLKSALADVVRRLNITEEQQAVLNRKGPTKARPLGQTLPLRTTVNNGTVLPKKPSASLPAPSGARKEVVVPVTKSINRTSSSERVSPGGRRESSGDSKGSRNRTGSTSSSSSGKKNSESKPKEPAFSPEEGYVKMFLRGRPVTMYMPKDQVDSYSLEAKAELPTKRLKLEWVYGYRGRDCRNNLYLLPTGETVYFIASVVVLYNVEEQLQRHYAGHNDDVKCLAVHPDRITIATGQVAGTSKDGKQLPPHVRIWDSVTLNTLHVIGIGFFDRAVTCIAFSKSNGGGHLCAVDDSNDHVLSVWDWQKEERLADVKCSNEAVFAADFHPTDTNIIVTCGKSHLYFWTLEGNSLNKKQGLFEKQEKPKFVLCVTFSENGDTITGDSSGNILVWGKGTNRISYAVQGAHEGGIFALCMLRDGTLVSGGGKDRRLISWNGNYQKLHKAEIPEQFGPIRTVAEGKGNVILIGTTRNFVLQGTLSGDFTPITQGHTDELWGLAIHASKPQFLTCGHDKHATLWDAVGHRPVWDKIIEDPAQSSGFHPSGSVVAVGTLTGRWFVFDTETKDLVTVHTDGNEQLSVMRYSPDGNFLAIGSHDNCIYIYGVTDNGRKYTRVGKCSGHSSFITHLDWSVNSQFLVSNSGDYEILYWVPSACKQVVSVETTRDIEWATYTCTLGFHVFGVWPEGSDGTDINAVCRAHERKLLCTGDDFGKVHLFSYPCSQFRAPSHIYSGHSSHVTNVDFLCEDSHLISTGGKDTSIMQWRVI

The target in the experiment is EML1-3DDK fusion protein (echinoderm microtubule associated protein like 1, mouse) (mouse) (UniProt Q05BC3). The experiment in a line: affinity purification with mass spectrometry; IP of EML1-3DDK from lysate of transfected HEK293 cells with anti-FLAG (DDK) M2 antibody (Pierce Crosslink Immunoprecipitation Kit); IP products of two independent experiments resolved on 10% SDS-PAGE, in-gel trypsin digestion, LC-ESI-MS/MS, search against the human UniProt database.

B1: EML2 (protein, UniProt O95834 1-649)
chain: MSSFGAGKTKEVIFSVEDGSVKMFLRGRPVPMMIPDELAPTYSLDTRSELPSCRLKLEWVYGYRGRDCRANLYLLPTGEIVYFVASVAVLYSVEEQRQRHYLGHNDDIKCLAIHPDMVTIATGQVAGTTKEGKPLPPHVRIWDSVSLSTLHVLGLGVFDRAVCCVGFSKSNGGNLLCAVDESNDHMLSVWDWAKETKVVDVKCSNEAVLVATFHPTDPTVLITCGKSHIYFWTLEGGSLSKRQGLFEKHEKPKYVLCVTFLEGGDVVTGDSGGNLYVWGKGGNRITQAVLGAHDGGVFGLCALRDGTLVSGGGRDRRVVLWGSDYSKLQEVEVPEDFGPVRTVAEGHGDTLYVGTTRNSILQGSVHTGFSLLVQGHVEELWGLATHPSRAQFVTCGQDKLVHLWSSDSHQPLWSRIIEDPARSAGFHPSGSVLAVGTVTGRWLLLDTETHDLVAIHTDGNEQISVVSFSPDGAYLAVGSHDNLVYVYTVDQGGRKVSRLGKCSGHSSFITHLDWAQDSSCFVTNSGDYEILYWDPATCKQITSADAVRNMEWATATCVLGFGVFGIWSEGADGTDINAVARSHDGKLLASADDFGKVHLFSYPCCQPRALSHKYGGHSSHVTNVAFLWDDSMALTTGGKDTSVLQWRVV
B1: the binding entry is given as “binds”.

B2: EML4 (protein, UniProt Q9HC35 1-981)
chain: MDGFAGSLDDSISAASTSDVQDRLSALESRVQQQEDEITVLKAALADVLRRLAISEDHVASVKKSVSSKGQPSPRAVIPMSCITNGSGANRKPSHTSAVSIAGKETLSSAAKSGTEKKKEKPQGQREKKEESHSNDQSPQIRASPSPQPSSQPLQIHRQTPESKNATPTKSIKRPSPAEKSHNSWENSDDSRNKLSKIPSTPKLIPKVTKTADKHKDVIINQEGEYIKMFMRGRPITMFIPSDVDNYDDIRTELPPEKLKLEWAYGYRGKDCRANVYLLPTGKIVYFIASVVVLFNYEERTQRHYLGHTDCVKCLAIHPDKIRIATGQIAGVDKDGRPLQPHVRVWDSVTLSTLQIIGLGTFERGVGCLDFSKADSGVHLCIIDDSNEHMLTVWDWQKKAKGAEIKTTNEVVLAVEFHPTDANTIITCGKSHIFFWTWSGNSLTRKQGIFGKYEKPKFVQCLAFLGNGDVLTGDSGGVMLIWSKTTVEPTPGKGPKGVYQISKQIKAHDGSVFTLCQMRNGMLLTGGGKDRKIILWDHDLNPEREIEVPDQYGTIRAVAEGKADQFLVGTSRNFILRGTFNDGFQIEVQGHTDELWGLATHPFKDLLLTCAQDRQVCLWNSMEHRLEWTRLVDEPGHCADFHPSGTVVAIGTHSGRWFVLDAETRDLVSIHTDGNEQLSVMRYSIDGTFLAVGSHDNFIYLYVVSENGRKYSRYGRCTGHSSYITHLDWSPDNKYIMSNSGDYEILYWDIPNGCKLIRNRSDCKDIDWTTYTCVLGFQVFGVWPEGSDGTDINALVRSHNRKVIAVADDFCKVHLFQYPCSKAKAPSHKYSAHSSHVTNVSFTHNDSHLISTGGKDMSIIQWKLVEKLSLPQNETVADTTLTKAPVSSTESVIQSNTPTPPPSQPLNETAEEESRISSSPTLLENSLEQTVEPSEDHSEEESEEGSGDLGEPLYEEPCNEISKEQAKATLLEDQQDPSPSS
Consider B2, for which the binding entry is given as “binds”.

These data come from paper PMC8194061.
